Results: publication PMC7819943, “Rice protein-binding microarrays: a tool to detect cis-acting elements near promoter regions in rice”
This is one part of the list.

Amino acid sequences for entries named in this document (tags omitted).
UniProt Q0JBA9, entry or part of it: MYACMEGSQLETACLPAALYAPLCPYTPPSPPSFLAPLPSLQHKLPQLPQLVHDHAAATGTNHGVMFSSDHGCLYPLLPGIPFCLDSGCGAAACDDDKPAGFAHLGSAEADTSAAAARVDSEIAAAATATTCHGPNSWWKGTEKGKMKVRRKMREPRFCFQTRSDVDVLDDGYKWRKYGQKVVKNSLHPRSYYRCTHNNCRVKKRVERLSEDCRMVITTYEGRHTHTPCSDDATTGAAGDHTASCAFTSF

target: OsWRKY34 (Oryza sativa, UniProt Q0JBA9 1-250); test: protein-binding microarray (RPBM); PBS, 2% BSA, 51.3 ng/ul salmon testes DNA, 50 uM zinc acetate, 200 nM TF, 25 C, 1 h; high values mean tight binding; details: protein: recombinant; tags: N-terminal polyhistidine and DsRed monomer fusion (pET32a); label: CyDye5-dUTP incorporated in the synthesized complementary strand; 3' TTTTT single-stranded linker to array surface; dsDNA, one strand shown
In short: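 The binding signal is fluorescence intensity per feature, in arbitrary units, read on an Axon 4000B scanner. Polyhistidine- and DsRed-tagged transcription factors (N-terminal fusions) from E. coli BL21-CodonPlus were purified on Ni–NTA and applied at 200 nM for 1 h at 25 °C to a double-stranded, BSA-blocked custom Agilent array in buffer with 50 µM zinc acetate.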

Sequence | binding signal
CACCGAAGAAATGTTTTTTAAACCTCTTCTTTTATTTATTCGGAGTCACCTAGTGCAG | 8110 fluorescence intensity (a.u.)
TAAGTAGCATTTTCTGTTTCATCAGACCATTTTATCCTCTCGGAGTCACCTAGTGCAG | 9760 fluorescence intensity (a.u.)
GTGCTTACGGTTTTTTTATTTTTATTTTTGTGTTGAAAATCGGAGTCACCTAGTGCAG | 9800 fluorescence intensity (a.u.)
TCGCTGCGGGTGGGTAGCGCAGCGTCGGGGCAGATCCGGCCGGAGTCACCTAGTGCAG | 10400 fluorescence intensity (a.u.)
CGCGCATCCCGGTTCGGAATCCGCTGCCGCCACCTTTCCCCGGAGTCACCTAGTGCAG | 8800 fluorescence intensity (a.u.)
GTCTTCAACACGTCCTCGCTCACGACCACTCTACGGTGCCCGGAGTCACCTAGTGCAG | 8600 fluorescence intensity (a.u.)
TGCGTCGTCTGTACCCGTACACATACCTAACCGCATCAGGCGGAGTCACCTAGTGCAG | 9890 fluorescence intensity (a.u.)
GCTACTATCCATCACTAACATTTTTCCTAACATATTCCCTCGGAGTCACCTAGTGCAG | 10800 fluorescence intensity (a.u.)
CTCTGTGTTGCGCCGTCACTCGTAGACTACTCCATCCCGCCGGAGTCACCTAGTGCAG | 9430 fluorescence intensity (a.u.)
ACACCATGTTTCCACATTGCATTTCCTTCTGTTTTTTCTTCGGAGTCACCTAGTGCAG | 17600 fluorescence intensity (a.u.)
GTGCCACGGCTATTTTTCTTCTCAGTTGGATAAGTCGGGTCGGAGTCACCTAGTGCAG | 8640 fluorescence intensity (a.u.)
ATCTGCCTGGCCACTTAGCCCGTGTGACCCATTTTTCGTTCGGAGTCACCTAGTGCAG | 9610 fluorescence intensity (a.u.)
CTCGTTGTTGTCTCTTCTCGCGCGTAGAGCTCTCTGCACTCGGAGTCACCTAGTGCAG | 8090 fluorescence intensity (a.u.)
GCCACGTCATCTATCCGGCCTTCTCACGTCTAACCAATCACGGAGTCACCTAGTGCAG | 8060 fluorescence intensity (a.u.)
TCGTGGCTGGGGAGGGACAAGAGGGAGGACGCGAGGCTGACGGAGTCACCTAGTGCAG | 11300 fluorescence intensity (a.u.)
CGCAGAATCACAGTTTTTCTTCATCTCCGGCAAGGGTAATCGGAGTCACCTAGTGCAG | 8960 fluorescence intensity (a.u.)
ACCGATCCTTGCCGCTAATCTCTACTACTTTAAAATTTTGCGGAGTCACCTAGTGCAG | 8160 fluorescence intensity (a.u.)
ACTTGTATTCCTATGAGAATCCTATGTTTTTCCTATTCCTCGGAGTCACCTAGTGCAG | 8950 fluorescence intensity (a.u.)
CGTTTTATTTTTGGTTGTTTTTCTGTTTGGGTTTTGATTTCGGAGTCACCTAGTGCAG | 11300 fluorescence intensity (a.u.)
TGCTTCTCTATCACCAAATTTCTCAGTTTGTTCACAATTGCGGAGTCACCTAGTGCAG | 8290 fluorescence intensity (a.u.)
ACTCTGTACTGCGCCGTCACTCGTAGACTACTCCATCCCGCGGAGTCACCTAGTGCAG | 9600 fluorescence intensity (a.u.)

Sequence | binding signal
TTCTCTTCCCGCGTCTCCTCGCGCCTCTTCCCGCCAATCGCGGAGTCACCTAGTGCAG | 8200 fluorescence intensity (a.u.)
TCCCCTACCGCTGCCCACCGCCGTCCACCACCGCCTTTCTCGGAGTCACCTAGTGCAG | 17000 fluorescence intensity (a.u.)
TAAGTTTTTTCCCAATTTTCTCTGTCTCATTCTCCTCAAACGGAGTCACCTAGTGCAG | 9670 fluorescence intensity (a.u.)
TCGTGGCCTTCAAGTTTCTGCTAGCTTCGTCCTTCGTTGCCGGAGTCACCTAGTGCAG | 9720 fluorescence intensity (a.u.)
GCTTCAGTTGGCAGCTGCCCTGTTTCTGCTTCATGTCCTGCGGAGTCACCTAGTGCAG | 9450 fluorescence intensity (a.u.)
TGTCTGTTCTTTCTTTTTTTTTTTCCCTCTCGTTCTTACTCGGAGTCACCTAGTGCAG | 9530 fluorescence intensity (a.u.)
ACCCTCATGCTAAAAGTTTAGTATCTGGATGTTTTTATATCGGAGTCACCTAGTGCAG | 9090 fluorescence intensity (a.u.)
AGGGACAGGGTTGGTGAAGTGGCTTCCATGCGGCGGCCACCGGAGTCACCTAGTGCAG | 8150 fluorescence intensity (a.u.)
CCGAGCTCCATCTCTGCCTCTTCCAGACGCGTCACCACTCCGGAGTCACCTAGTGCAG | 11300 fluorescence intensity (a.u.)
AGCCTCACAACGGTTATTTTCAAATTTGAACGGTCAAATACGGAGTCACCTAGTGCAG | 8570 fluorescence intensity (a.u.)
CTAGCTCACACACAATTGCATACACCTAGCTCAAAAGCCTCGGAGTCACCTAGTGCAG | 9080 fluorescence intensity (a.u.)
GTTTCAATCTCCATTTCTCAATCCTTCTTGAGCACCATCTCGGAGTCACCTAGTGCAG | 8260 fluorescence intensity (a.u.)
GGATTTTGGAGTAGATTTTTCATGATGTTAATGGCATGTTCGGAGTCACCTAGTGCAG | 8240 fluorescence intensity (a.u.)
CTTCTTCTTCCTCGTATTGCTGCTGCTGCTTTTGGTCTCCCGGAGTCACCTAGTGCAG | 8740 fluorescence intensity (a.u.)
TGTATGTCACTTACAGGTGGGCCCCATGTGCCTTTTAATTCGGAGTCACCTAGTGCAG | 8630 fluorescence intensity (a.u.)
CCTCCCTAATTAGTACTCCACTCCACAAAACACCTCCTTCCGGAGTCACCTAGTGCAG | 8690 fluorescence intensity (a.u.)
ATTTTGCTACCGGATCTAAACCCTATTTTCACAAGCTAATCGGAGTCACCTAGTGCAG | 10500 fluorescence intensity (a.u.)
CTTTTTTCTTTAATTATTTTCCGCGAAACAACAATAAATACGGAGTCACCTAGTGCAG | 9690 fluorescence intensity (a.u.)
GTTGCGCCTTAGCGATCGATACACCTCTCCGAGTAATGTTCGGAGTCACCTAGTGCAG | 8370 fluorescence intensity (a.u.)
GCTGGTGTGTTCGCGTGGGACGTGTATGACTGACAATTAGCGGAGTCACCTAGTGCAG | 8900 fluorescence intensity (a.u.)
CCACATGCCACATATTTCGTCCGTTTGAGTTTATTTTTTACGGAGTCACCTAGTGCAG | 15700 fluorescence intensity (a.u.)

A few values from above.
TTCTCTTCCCGCGTCTCCTCGCGCCTCTTCCCGCCAATCGCGGAGTCACCTAGTGCAG | binding signal: 8200 fluorescence intensity (a.u.)
GCTTCAGTTGGCAGCTGCCCTGTTTCTGCTTCATGTCCTGCGGAGTCACCTAGTGCAG | binding signal: 9450 fluorescence intensity (a.u.)
CCGAGCTCCATCTCTGCCTCTTCCAGACGCGTCACCACTCCGGAGTCACCTAGTGCAG | binding signal: 11300 fluorescence intensity (a.u.)
TCGTGGCCTTCAAGTTTCTGCTAGCTTCGTCCTTCGTTGCCGGAGTCACCTAGTGCAG | binding signal: 9720 fluorescence intensity (a.u.)
